Source: paper PMC3897949
Results are given in words; binding and its absence hold for the method and conditions named. In cells and extracts the contact can be indirect. Some binding calls cover weakened binding; strength is not graded here.

Sequences of proteins named here, by UniProt entry; tags and fusion partners are left off.
UniProt Q92831: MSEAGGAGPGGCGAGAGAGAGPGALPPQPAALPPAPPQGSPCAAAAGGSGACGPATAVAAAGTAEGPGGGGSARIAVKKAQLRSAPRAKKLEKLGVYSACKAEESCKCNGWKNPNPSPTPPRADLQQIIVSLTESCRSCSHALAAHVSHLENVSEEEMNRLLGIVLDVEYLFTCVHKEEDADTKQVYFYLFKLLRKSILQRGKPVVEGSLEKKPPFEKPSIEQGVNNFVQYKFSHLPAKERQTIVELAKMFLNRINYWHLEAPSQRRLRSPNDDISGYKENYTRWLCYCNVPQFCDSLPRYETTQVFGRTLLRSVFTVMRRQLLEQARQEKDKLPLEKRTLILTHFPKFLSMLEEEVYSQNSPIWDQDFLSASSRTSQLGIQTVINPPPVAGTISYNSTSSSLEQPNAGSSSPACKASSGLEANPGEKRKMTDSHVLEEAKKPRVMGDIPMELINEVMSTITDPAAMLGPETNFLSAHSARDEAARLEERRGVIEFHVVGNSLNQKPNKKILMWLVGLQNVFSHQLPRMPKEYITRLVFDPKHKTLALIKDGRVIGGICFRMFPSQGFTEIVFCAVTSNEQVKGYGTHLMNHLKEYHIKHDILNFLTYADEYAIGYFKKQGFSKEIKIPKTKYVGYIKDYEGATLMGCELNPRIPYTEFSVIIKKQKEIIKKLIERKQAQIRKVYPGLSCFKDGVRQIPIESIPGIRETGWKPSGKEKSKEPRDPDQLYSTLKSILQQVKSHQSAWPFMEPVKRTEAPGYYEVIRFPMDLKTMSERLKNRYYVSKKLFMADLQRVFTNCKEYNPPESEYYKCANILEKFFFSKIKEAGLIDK

Target: Flag-tagged full-length human PCAF (human) (UniProt Q92831)
Test: co-IP; Flag-PCAF and HA-PCAF co-transfected in 293T cells; lysate on anti-Flag M2 affinity gel for 4 h; lysis buffer with 150 mM NaCl and 1% Triton X-100; western blot with anti-HA

binding: binds
Substance: HA-tagged full-length PCAF (from UniProt Q92831 1-832)
